This test can be described thus: qHTS Assay to Find Inhibitors of Chronic Active B-Cell Receptor Signaling. As to conditions: ABC-DLBCL IkBa-CBG/CBR reporter, luminescence ratio (green luciferase fused to IkBa over red control in TMD8 lymphoma cells), 4 h. The method in brief:
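TMD8 human ABC-DLBCL cells with doxycycline-inducible IκBα–green luciferase fusion and unfused red luciferase, in 0.5% FBS medium; compounds up to 46 uM, 4 h at 37C. Green/red luminescence ratio, filter-overlap corrected, fitted to concentration-response curves.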

The mark [1] stands for this setting: measured here: CBR red luminescence, cell number.
Setting [2] is: measured here: IkBa-CBG green luminescence.

Each structure is given as a SMILES string. The list shows a part of the results. These are further read-outs of the screen, such as a control signal, another cell line or another target. No call is given for them. The list favours compounds with an active or inconclusive main result. The note in brackets gives the kind of curve behind each potency; many fits are weak.

For the compound `COc1ccc(-c2nc(N=Nc3ccc(O)cc3)n[nH]2)cc1`, under setting [1], the AC50 is 25.9 µM [falling, single point].

On to `CCN(CC)C(=O)Cn1cc(C(=O)C(=O)NCc2cccs2)c2ccccc21`, for which, under setting [1], the AC50 was 0.631 µM [falling, full curve, poor fit].

On to `CN(C)CCCOC(=O)c1ccccc1Cl`, for which the concentration at half-maximal activity (AC50) under setting [1] is 10.3 µM [rising, partial curve].

On to `O=C(NCCc1c[nH]c2ccccc12)Nc1ccccc1`, for which, under setting [1], the AC50 is 18.4 µM [falling, partial curve].

Turning to `O=C(CCCN1C(=O)c2ccccc2C1=O)Nc1ccc2c(c1)OCCO2`, the AC50 under setting [1] is 7.08 µM [rising, partial curve, poor fit].

Regarding `Cc1csc(NC(=O)CSc2nnc(-c3ccccc3)o2)n1`, under setting [1], the concentration at half-maximal activity (AC50) was 6.51 µM [falling, partial curve].

Consider `N#Cc1ncc(Cc2ccccc2)nc1C#N`, for which the AC50 under setting [1] was 35.5 µM [falling, single point].

With `O=C(COc1ccccc1[N+](=O)[O-])Nc1cccc(S(=O)(=O)N2CCCC2)c1`, under setting [1], the AC50 is 3.66 µM [falling, partial curve, poor fit].

With `Cc1ccccc1-n1c(=O)[nH]c(=O)c2c(N)c(C(=O)c3ccc(Cl)cc3)sc21`, the half-maximal activity concentration (AC50) under setting [1] is 1.3 µM [rising, full curve].

For the compound `Cc1ccsc1C(=O)N/N=C/c1ccc([N+](=O)[O-])cc1`, the AC50 under setting [1] is 2.31 µM [falling, full curve].

In the case of `O=C(CNc1cccc(F)c1)N1CCc2ccccc2C1`, the AC50 under setting [1] is 3.55 µM [falling, full curve].

Take `Cc1cc(NC(=O)CCCN2C(=O)/C(=C\c3cccs3)SC2=S)no1`: the AC50 under setting [1] is 13 µM [falling, partial curve].

With `c1coc(CN(Cc2ccco2)c2ncnc3c2oc2ccccc23)c1`, the half-maximal activity concentration (AC50) under setting [1] was 7.31 µM [falling, partial curve, poor fit].

`Brc1ccccc1OCCOCCOc1cccc2cccnc12`: the concentration at half-maximal activity (AC50) under setting [1] is 2.24 µM [rising, partial curve, poor fit].

On to `COc1cc(C(=O)O/N=C(\N)c2cccc([N+](=O)[O-])c2)cc(OC)c1OC`, for which the AC50 under setting [1] is 5.01 µM [rising, partial curve].

With `N#CC1(c2ccccc2)CCC(=NNS(=O)(=O)c2ccccc2)CC1` (configuration not stated), the AC50 under setting [1] is 1.16 µM [rising, full curve, poor fit].

As to `c1ccc2sc(NN=C3CCCCCC3)nc2c1`, the concentration at half-maximal activity (AC50) under setting [1] was 11.2 µM [falling, partial curve, poor fit].

For `CC(Sc1nc2ncc(Cl)cc2[nH]1)C(=O)Nc1ccc(C(N)=O)cc1` (configuration not stated), the AC50 under setting [1] was 16.4 µM [rising, partial curve, poor fit].

As for `Cc1cc(C(=O)N/N=C/c2ccc(N(C)C)o2)cs1`, the half-maximal activity concentration (AC50) under setting [1] was 8.91 µM [falling, single point].

For `O=C(Nc1nnc(-c2ccccc2)o1)c1nc2ccccc2s1`, under setting [1], the AC50 was 1.78 µM [falling, full curve].

Consider `O=C(Nc1cccc([N+](=O)[O-])c1)C1C2CC/C=C\CCC21` (configuration not stated), for which the concentration at half-maximal activity (AC50) under setting [1] was 35.5 µM [rising, single point].

Turning to `Cc1cccc(-c2nc(CN3CCCC(C(=O)NC4CCC(C)CC4)C3)c(C)o2)c1` (configuration not stated), under setting [1], the half-maximal activity concentration (AC50) is 31.6 µM [rising, single point].

In the case of `Cc1ccnc(N=Cc2nc(-c3ccccc3Br)oc2O)c1`, under setting [1], the half-maximal activity concentration (AC50) is 5.62 µM [falling, full curve].

As for `CS(=O)(=O)c1ccc(Cl)c(NC(=O)CCN2C(=O)NC3(CCCC3)C2=O)c1`, the AC50 under setting [1] is 20.6 µM [rising, single point].

With `Cc1ccc(C2=NN(CC(=O)NCCc3ccc(Cl)cc3)C(=O)CC2)cc1`, the AC50 under setting [1] was 22.4 µM [falling, single point].

In the case of `O=[N+]([O-])c1ccc(Oc2cccc3cccnc23)c(Cl)c1`, the half-maximal activity concentration (AC50) under setting [1] is 35.5 µM [rising, partial curve, poor fit].

Turning to `COCCCNc1nc(N)c([N+](=O)[O-])c(N2CCCCCC2)n1`, the half-maximal activity concentration (AC50) under setting [1] is 20 µM [rising, partial curve, poor fit].

Consider `O=C(Nc1cc(F)ccc1F)c1cc2nc(-c3ccco3)cc(C(F)(F)Cl)n2n1`, for which the AC50 under setting [1] is 20 µM [falling, partial curve, poor fit].

As to `CC(Oc1ccccc1)C(=O)N1CCCc2ccccc21` (configuration not stated), the AC50 under setting [1] was 4.11 µM [rising, full curve].

`COc1ccccc1OCC(=O)/C=C1/N(C)c2ccccc2C1(C)C`: the AC50 under setting [1] was 7.08 µM [falling, full curve, poor fit].

For the compound `COc1cccc(-c2nn(-c3ccccc3)cc2C(=O)O)c1`, the AC50 under setting [1] is 17.8 µM [rising, single point].

Consider `O=C(CN1C(=O)c2ccccc2C1=O)Nc1ccccc1N1CCOCC1`, for which, under setting [1], the AC50 is 3.98 µM [falling, single point].

In the case of `Nc1ccc2nc(CN3CCOCC3)[nH]c2c1`, the AC50 under setting [1] is 0.517 µM [rising, full curve, poor fit].

Take `Cc1ccc(-c2nc(CNC(=O)c3cc(C)on3)cs2)cc1`: the concentration at half-maximal activity (AC50) under setting [1] is 12.6 µM [falling, partial curve, poor fit].

For the compound `COCCN(CCOC)C(=O)C1CCCN(S(=O)(=O)c2ccc(NC(=O)OC)cc2)C1` (configuration not stated), the AC50 under setting [1] is 1.41 µM [falling, partial curve, poor fit].

`Cc1cc(C)c2cc(C(=O)N3CCc4ccccc4C3)[nH]c2c1`: the half-maximal activity concentration (AC50) under setting [1] was 35.5 µM [falling, single point].

With `Cc1ccc(Cl)cc1N1CCN(C(=O)C2CCN(S(=O)(=O)c3ccc4c(c3)oc(=O)n4C)CC2)CC1`, under setting [1], the AC50 is 5.62 µM [falling, full curve, poor fit].

As for `Cc1ccc(C)c(CSC2=NCCN2C(=O)Cc2ccc([N+](=O)[O-])cc2)c1`, the half-maximal activity concentration (AC50) under setting [2] was 23.1 µM [rising, partial curve, poor fit].

Regarding `CCCn1c(SCC(=O)Nc2cccc(S(=O)(=O)NC3=NCCCCC3)c2)nc2ccccc2c1=O`, the AC50 under setting [1] was 14.1 µM [falling, single point].

Regarding `CN(C)c1cccc(C(=O)Nc2ccc3nc4n(c(=O)c3c2)CCCCC4)c1`, the half-maximal activity concentration (AC50) under setting [1] is 0.0058 µM [rising, full curve, poor fit].

Regarding `Oc1ccccc1C1=NN(c2ccccc2)C(c2ccccc2)C1` (configuration not stated), the concentration at half-maximal activity (AC50) reads like this: under setting [1], 31.6 µM [rising, single point]; under setting [2], 35.5 µM [falling, single point].

Usually AC50 stands for the concentration giving half of the maximal activity seen.

These data come from PubChem BioAssay AID493014 (National Center for Advancing Translational Sciences (NCATS), 2011).
